± gives the standard deviation of the averaged measurements. Most entries show no effect beyond the scatter of the controls.
How the values were obtained:
Assay in all cases: level (log10 ratio to DMSO vehicle control); higher = higher biomarker level / cell amount than vehicle control
[1] = compound: C=CC(F)(F)C(F)(F)C(F)(F)C(F)(F)C(F)(F)C(F)(F)C(F)(F)C(F)(F)C=C [1,8-Divinylperfluorooctane]; details: in DMSO
Protocol: (§1)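 BioMAP Diversity Plus panel of 12 human primary cell co-culture systems (3C, 4H, LPS, SAg, BT, BF4T, BE3C, CASM3C, HDF3CGF, KF3CT, MyoF, Mphg). Compounds were added 1 h before stimulation and left for 24 h (MyoF 48 h; BT 72 h for soluble read-outs or 6 d for IgG). Biomarkers were read by ELISA, cytotoxicity by SRB, PBMC viability and proliferation by Alamar Blue. Each well value was divided by the mean of 8 DMSO control wells on the same plate and log10 transformed; duplicate blinded samples were tested at 4 concentrations.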

[2] = compound: FC(F)(F)C(F)(F)C(F)(F)CC1CO1 [1H,1H-Heptafluorobutyl epoxide]; details: 2200 nM; in DMSO
Protocol: as §1

[3] = compound: C=CC(=O)OCC(F)(F)C(F)(F)C(F)(F)C(F)(F)C(F)(F)C(F)(F)C(F)(F)F [1H,1H-Perfluorooctyl acrylate]; details: 2200 nM; in DMSO
Protocol: as §1

[4] = compound: CO[Si](C)(CCC(F)(F)C(F)(F)C(F)(F)C(F)(F)C(F)(F)C(F)(F)F)OC [Dimethoxymethyl((perfluorohexyl)ethyl)silane]; details: in DMSO
Protocol: as §1

[5] = compound: NC(=O)C(F)(F)C(F)(F)C(F)(F)C(F)F; details: in DMSO
Protocol: as §1

[6] = compound: COC(=O)C(F)(F)C(F)(F)OC(F)(C(F)(F)F)C(F)(F)OC(F)=C(F)F [Methyl perfluoro(3-(1-ethenyloxypropan-2-yloxy)propanoate)]; details: in DMSO
Protocol: as §1

[7] = compound: O=S(=O)(OCC(F)(F)F)C(F)(F)C(F)(F)C(F)(F)C(F)(F)F [2,2,2-Trifluoroethyl perfluorobutanesulfonate]; details: 2200 nM; in DMSO
Protocol: as §1

[8] = compound: OCCCCC(F)(F)C(F)(F)C(F)(F)C(F)(F)F [4:4 Fluorotelomer alcohol]; details: 2200 nM; in DMSO
Protocol: as §1

[9] = compound: O=S(=O)(O)C(F)(F)C(F)(F)C(F)(F)C(F)(F)C(F)(F)C(F)(F)C(F)(F)C(F)(F)F [Potassium perfluorooctanesulfonate]; details: 2200 nM; in DMSO
Protocol: as §1

[10] = compound: NS(=O)(=O)C(F)(F)C(F)(F)C(F)(F)C(F)(F)C(F)(F)C(F)(F)C(F)(F)C(F)(F)F [Perfluorooctanesulfonamide]; details: in DMSO
Protocol: as §1

[11] = compound: O=S(=O)(O)C(F)(F)C(F)(F)C(F)(F)C(F)(F)C(F)(F)C(F)(F)C(F)(F)C(F)(F)F [Perfluorooctanesulfonic acid]; details: 2200 nM; in DMSO
Protocol: as §1

[12] = compound: O=C(O)C(F)(F)C(F)(F)C(F)F [4H-Perfluorobutanoic acid]; details: in DMSO
Protocol: as §1

[13] = compound: O=P(O)(O)CCC(F)(F)C(F)(F)C(F)(F)C(F)(F)C(F)(F)C(F)(F)F [2-(Perfluorohexyl)ethylphosphonic acid]; details: 2200 nM; in DMSO
Protocol: as §1

[14] = compound: C=C(C)C(=O)OCC(F)(F)C(F)(F)C(F)(F)C(F)(F)C(F)(F)C(F)(F)C(F)(F)F; details: in DMSO
Protocol: as §1

[15] = compound: FC(F)(F)C(F)(F)C(F)(F)CI [Heptafluorobutyl iodide]; details: 2200 nM; in DMSO
Protocol: as §1

[16] = compound: O=S(=O)(F)C(F)(F)C(F)(F)C(F)(F)C(F)(F)C(F)(F)C(F)(F)C(F)(F)C(F)(F)F [Perfluorooctanesulfonyl fluoride]; details: 2200 nM; in DMSO
Protocol: as §1

[17] = compound: NC(=O)C(F)(F)C(F)(F)F [Pentafluoropropionamide]; details: 2200 nM; in DMSO
Protocol: as §1

[18] = compound: OCC(F)(F)C(F)(F)C(F)(F)C(F)(F)C(F)(F)C(F)F [1H,1H,7H-Dodecafluoro-1-heptanol]; details: 2200 nM; in DMSO
Protocol: as §1

Test System | level (log10) ([1]; 740 nM) | level (log10) ([1]; 2200 nM) | level (log10) [2] | level (log10) [3] | level (log10) ([4]; 740 nM) | level (log10) ([4]; 2200 nM) | level (log10) ([5]; 2200 nM) | level (log10) ([5]; 6700 nM) | level (log10) ([5]; 20000 nM) | level (log10) ([5]; 60000 nM) | level (log10) ([6]; 740 nM) | level (log10) ([6]; 2200 nM) | level (log10) [7] | level (log10) [8] | level (log10) [9] | level (log10) ([10]; 2200 nM) | level (log10) ([10]; 6700 nM) | level (log10) ([10]; 20000 nM) | level (log10) [11] | level (log10) ([12]; 2200 nM) | level (log10) ([12]; 6700 nM) | level (log10) ([12]; 20000 nM) | level (log10) ([12]; 60000 nM) | level (log10) [13] | level (log10) ([14]; 740 nM) | level (log10) ([14]; 2200 nM) | level (log10) [15] | level (log10) [16] | level (log10) [17] | level (log10) [18]
BT:sIL-2 | 0.04 ± 0.0099 | 0.054 ± 0.048 | -0.007 ± 0.075 | 0.058 ± 0.0014 | 0.0545 ± 0.077 | 0.0515 ± 0.025 | -0.051 ± 0.018 | 0.002 ± 0.058 | -0.056 ± 0.051 | 0.04 ± 0.0099 | -0.0075 ± 0.16 | 0.0545 ± 0.081 | -0.002 ± 0.0042 | -0.0225 ± 0.018 | 0.0355 ± 0.1 | -0.0055 ± 0.029 | -0.0115 ± 0.049 | 0.0005 ± 0.028 | -0.039 | -0.0505 ± 0.097 | 0.0065 ± 0.054 | -0.0275 ± 0.14 | -0.056 ± 0.017 | 0.08 ± 0.025 | -0.01 ± 0.089 | -0.048 ± 0.069 | 0.011 ± 0.096 | -0.067 ± 0.059 | 0.0455 ± 0.053 | 0.0385 ± 0.011
LPS:sPGE2 | -0.04 ± 0.0042 | -0.023 ± 0.0099 | 0.044 ± 0.057 | -0.059 ± 0.017 | -0.0005 ± 0.069 | -0.0255 ± 0.083 | -0.005 ± 0.051 | -0.0045 ± 0.028 | -0.0005 ± 0.005 | 0.0315 ± 0.036 | 0.049 ± 0.021 | 0.023 ± 0.057 | 0.0215 ± 0.047 | -0.0365 ± 0.043 | 0.0165 ± 0.0064 | -0.029 ± 0.02 | 0.07 ± 0.011 | 0.0945 ± 0.012 | 0.025 ± 0.024 | -0.004 ± 0.027 | 0.0025 ± 0.054 | -0.111 ± 0.054 | -0.052 ± 0.013 | -0.015 ± 0.031 | -0.0305 ± 0.05 | -0.022 ± 0.047 | -0.045 ± 0.021 | -0.0215 ± 0.03 | 0.0065 ± 0.11 | 0.0025 ± 0.018
LPS:CD141/Thrombomodulin | -0.0235 ± 0.026 | -0.018 ± 0.03 | 0.085 ± 0.03 | -0.0225 ± 0.019 | 0.029 ± 0.037 | 0.0105 ± 0.035 | -0.0465 ± 0.005 | -0.037 ± 0.023 | -0.0225 ± 0.028 | -0.02 ± 0.021 | -0.0325 ± 0.0092 | -0.0425 ± 0.015 | 0.031 ± 0.023 | 0.0105 ± 0.0021 | -0.015 ± 0.016 | 0.0765 ± 0.018 | 0.037 ± 0.072 | 0.0785 ± 0.066 | -0.0115 ± 0.011 | -0.0075 ± 0.0021 | -0.009 | -0.012 ± 0.016 | -0.008 ± 0.013 | 0.01 ± 0.15 | 0.0055 ± 0.044 | -0.0195 ± 0.019 | 0.005 ± 0.11 | -0.0005 ± 0.0064 | -0.017 ± 0.013 | 0.018 ± 0.064
CASM3C:CD142/Tissue Factor | -0.011 ± 0.014 | 0.0055 ± 0.00071 | -0.026 ± 0.057 | -0.0025 ± 0.035 | -0.0125 ± 0.029 | -0.0065 ± 0.012 | -0.0165 ± 0.012 | -0.01 ± 0.017 | -0.001 ± 0.011 | -0.0075 ± 0.00071 | 0.0005 ± 0.039 | 0.0075 ± 0.037 | 0.004 ± 0.038 | -0.001 ± 0.059 | 0.0025 ± 0.11 | -0.0205 ± 0.033 | 0.021 ± 0.011 | 0.082 ± 0.04 | -0.0025 ± 0.026 | -0.0175 ± 0.054 | 0.0045 ± 0.14 | -0.039 ± 0.093 | -0.0415 ± 0.037 | -0.0225 ± 0.049 | -0.0175 ± 0.005 | -0.034 ± 0.051 | 0.0065 ± 0.043 | -0.004 ± 0.0099 | -0.015 ± 0.016 | 0.0015 ± 0.029

Reference: the supplement of paper PMC10331698
